Experimental data as given in paper PMC9684461, “RNA-controlled nucleocytoplasmic shuttling of mRNA decay factors regulates mRNA synthesis and a novel mRNA decay pathway” (Nature Communications, 2021).
Results are given in words; binding and its absence hold for the method and conditions named. Binding seen in cells or lysates may run through a third protein. A yes stands for co-enrichment or nearness to the bait. Other partners may have been found. Where a sequence is shown, tags or fusion partners need not be part of it.

Sequences of proteins named here, by UniProt entry; tags and fusion partners are left off.
UniProt P22147: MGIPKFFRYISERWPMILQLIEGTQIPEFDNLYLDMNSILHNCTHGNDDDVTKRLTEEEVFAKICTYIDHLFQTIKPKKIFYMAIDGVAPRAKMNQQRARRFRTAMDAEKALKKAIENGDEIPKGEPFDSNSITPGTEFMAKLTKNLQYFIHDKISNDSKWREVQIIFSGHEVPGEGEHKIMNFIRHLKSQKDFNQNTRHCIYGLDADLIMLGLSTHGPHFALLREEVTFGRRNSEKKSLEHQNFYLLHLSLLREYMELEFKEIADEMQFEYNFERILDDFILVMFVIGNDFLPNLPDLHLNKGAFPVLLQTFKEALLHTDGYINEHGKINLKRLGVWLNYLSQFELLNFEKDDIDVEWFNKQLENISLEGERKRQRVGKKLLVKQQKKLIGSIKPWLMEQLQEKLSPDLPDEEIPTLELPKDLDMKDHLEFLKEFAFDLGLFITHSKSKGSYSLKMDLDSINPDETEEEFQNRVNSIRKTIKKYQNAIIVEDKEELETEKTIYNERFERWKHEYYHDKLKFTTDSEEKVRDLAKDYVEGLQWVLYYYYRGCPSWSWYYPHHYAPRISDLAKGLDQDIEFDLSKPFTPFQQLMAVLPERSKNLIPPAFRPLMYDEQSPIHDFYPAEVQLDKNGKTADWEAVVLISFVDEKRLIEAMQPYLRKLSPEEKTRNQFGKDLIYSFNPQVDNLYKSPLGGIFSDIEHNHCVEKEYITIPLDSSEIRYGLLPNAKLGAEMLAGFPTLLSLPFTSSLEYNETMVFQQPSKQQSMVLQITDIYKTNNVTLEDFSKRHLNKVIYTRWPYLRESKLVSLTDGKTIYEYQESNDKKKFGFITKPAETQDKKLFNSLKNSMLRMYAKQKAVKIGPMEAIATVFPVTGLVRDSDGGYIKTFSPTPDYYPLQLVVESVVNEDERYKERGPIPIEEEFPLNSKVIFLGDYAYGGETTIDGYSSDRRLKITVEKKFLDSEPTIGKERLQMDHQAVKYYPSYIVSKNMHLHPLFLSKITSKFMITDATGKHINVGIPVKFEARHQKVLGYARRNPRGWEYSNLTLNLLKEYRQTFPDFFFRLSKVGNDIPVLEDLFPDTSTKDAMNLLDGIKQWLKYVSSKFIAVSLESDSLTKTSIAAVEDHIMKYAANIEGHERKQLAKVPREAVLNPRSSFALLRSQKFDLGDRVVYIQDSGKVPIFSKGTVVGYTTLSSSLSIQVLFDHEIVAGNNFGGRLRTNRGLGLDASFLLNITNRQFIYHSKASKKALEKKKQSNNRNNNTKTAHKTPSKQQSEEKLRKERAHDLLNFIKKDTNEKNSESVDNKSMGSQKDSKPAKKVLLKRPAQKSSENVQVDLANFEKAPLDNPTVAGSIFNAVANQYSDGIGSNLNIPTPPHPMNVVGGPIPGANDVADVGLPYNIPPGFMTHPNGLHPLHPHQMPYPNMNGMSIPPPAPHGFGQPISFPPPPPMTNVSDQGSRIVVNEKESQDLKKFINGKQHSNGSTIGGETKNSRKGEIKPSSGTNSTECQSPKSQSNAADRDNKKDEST

Target: T1, FLAG-tagged Xrn1 (wild type) (S. cerevisiae, UniProt P22147 1-1528)
T1 construct: 5' to 3' exonuclease Xrn1 (alias Kem1) of S. cerevisiae, called full-length Xrn1 for the FLAG-tagged purified protein; also called Xrn1-FLAG; Xrn1^WT; source: genomically FLAG-tagged strain, in lysate, for the IP with mass spectrometry
Assay: affinity purification with mass spectrometry; lysate of strains with genomically FLAG-tagged WT or ΔNLS1/2 Xrn1 and a no-tag control; anti-FLAG Sepharose, elution with 3x FLAG peptide, in-gel digestion, mass spectrometry

binding: binds
B1: Kap120 (endogenous, in the lysate of the Xrn1-FLAG strain) (protein, UniProt Q02932 1-1032)
chain: MASSLNELNLVQVLEQASNPQHIRSDVQKLAEQQLRQWETQAGFHYLLQSIYLNLSNSLQIRWLAVIQFKNGVDKYWRSTRINAIPKDEKASIRGRLFEMIDEQNNQLCIQNAQASARIARLDFPVEWPTLFEDLENLLNDEIIRKDSVKIYNILMHINQIVKVLGTARIGRCRPAMQSKVPLILPLIVRIYLQSFEEWTTSSNLNYEDLSSLQVSYLALKVLRRIICEGYDRPQTDQSVCDFIKLSVSHFEMLISNHENFKKFDIYEKFIKCLGKLYFNLVTGSPANFILLPCSTQILITYTRLIFDKAPKVYRENSDVTGDFWEQTAIRGLLILKRVINFIHKKGAITLKARSDKLTIDASINKINTEFLNENLITRLVDTLMEWYLRLRPTELENWFMDPEEWINEQMATSYEYQIRPCAENVFQDLMNTFSELLVPYLLKKIENDASKLSNSLDDFLRKDAIYASFQLSASAVSEMVDFDRLLIQVFLPEATNTNISGDELRIIRRRVALIINEWSTVKCSEESKSLCYKLFTNFLTDEDDKVVLLTTVQTVRTMVDDWNFNKDTFQPFLTENVHLLLRKILPSVSLTETRLYVLNTLSDIIIQTKPLISRDLLVEILQIIPNLWEIATNNASEAILANALLRLLRNLVSSLGSQSHLTWDIAIPVVALACDPSSMQYQLLSEDGYELWGMLLQNFSSHDQEFDDKFVELVPFLKYGIETHTEILPTLLEIIKSYALILNPVDFFSNNTFQDIFKQMSKYLLKLREDSFQLVLEIWEILILSNESDYENLLLQKFYETGVLSALFDAIFLEEAPSSYLCSQIIQIIARISYVNPDALMTFLATYHDNLPTSNENARMPESIRKIVSKDQTYDSVVNKLLTGWIVCFRDIFDPKFKKVHILGISSLLRTGLVPILTEFSSIASLWIEMLEEINETNRGDCEKYHLNDIVTEQSIAFHPLTAEQLRYHQLCKNNDPVHNISLKDFISQSMEYLESHLGVERYQEFLKTINPSLLENLQMFLSIQPQEARP
